Measured values: paper doi:10.1101/871640
Like-named read-outs stand apart in the source and are kept apart here. No constants are given. Whether binding was seen depends on the method and setting. A result given as binding can be weak or reduced; the word gives no strength.

Experiments:
PBX1a [1] = target: T1, PBX1a (UniProt P40424); assay: native gel or EMSA
T1 sequence: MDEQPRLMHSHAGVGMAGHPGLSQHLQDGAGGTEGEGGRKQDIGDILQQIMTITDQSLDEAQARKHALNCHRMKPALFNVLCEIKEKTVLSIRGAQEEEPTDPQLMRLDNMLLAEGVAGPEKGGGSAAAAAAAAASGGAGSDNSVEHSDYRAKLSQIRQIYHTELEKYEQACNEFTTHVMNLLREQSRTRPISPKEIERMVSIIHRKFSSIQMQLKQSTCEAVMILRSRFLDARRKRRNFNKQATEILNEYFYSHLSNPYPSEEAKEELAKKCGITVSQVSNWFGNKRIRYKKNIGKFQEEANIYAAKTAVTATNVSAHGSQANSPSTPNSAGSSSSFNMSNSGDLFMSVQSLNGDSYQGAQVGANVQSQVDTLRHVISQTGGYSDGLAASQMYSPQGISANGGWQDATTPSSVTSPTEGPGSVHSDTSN

PBX1a [2] = target: T1, PBX1a; assay: native gel or EMSA; remark: listed apart in the source

MEIS2 (isoform 1) (mouse)
binding (PBX1a [1]): binds
binding (PBX1a [2]): binds
